Source: paper PMC12900513
No constants are given. Whether binding was seen depends on the method and setting. In cells and extracts the contact can be indirect. A yes stands for co-enrichment or nearness to the bait. Other partners may have been found.

The chains behind the UniProt entries cited, without tags or fusion partners. Residues count along the entry.
UniProt P98161, residues 3118-3233: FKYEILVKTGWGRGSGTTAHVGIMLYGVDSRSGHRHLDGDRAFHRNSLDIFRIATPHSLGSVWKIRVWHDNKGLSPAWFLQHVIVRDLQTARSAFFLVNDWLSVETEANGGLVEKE
UniProt Q9H694: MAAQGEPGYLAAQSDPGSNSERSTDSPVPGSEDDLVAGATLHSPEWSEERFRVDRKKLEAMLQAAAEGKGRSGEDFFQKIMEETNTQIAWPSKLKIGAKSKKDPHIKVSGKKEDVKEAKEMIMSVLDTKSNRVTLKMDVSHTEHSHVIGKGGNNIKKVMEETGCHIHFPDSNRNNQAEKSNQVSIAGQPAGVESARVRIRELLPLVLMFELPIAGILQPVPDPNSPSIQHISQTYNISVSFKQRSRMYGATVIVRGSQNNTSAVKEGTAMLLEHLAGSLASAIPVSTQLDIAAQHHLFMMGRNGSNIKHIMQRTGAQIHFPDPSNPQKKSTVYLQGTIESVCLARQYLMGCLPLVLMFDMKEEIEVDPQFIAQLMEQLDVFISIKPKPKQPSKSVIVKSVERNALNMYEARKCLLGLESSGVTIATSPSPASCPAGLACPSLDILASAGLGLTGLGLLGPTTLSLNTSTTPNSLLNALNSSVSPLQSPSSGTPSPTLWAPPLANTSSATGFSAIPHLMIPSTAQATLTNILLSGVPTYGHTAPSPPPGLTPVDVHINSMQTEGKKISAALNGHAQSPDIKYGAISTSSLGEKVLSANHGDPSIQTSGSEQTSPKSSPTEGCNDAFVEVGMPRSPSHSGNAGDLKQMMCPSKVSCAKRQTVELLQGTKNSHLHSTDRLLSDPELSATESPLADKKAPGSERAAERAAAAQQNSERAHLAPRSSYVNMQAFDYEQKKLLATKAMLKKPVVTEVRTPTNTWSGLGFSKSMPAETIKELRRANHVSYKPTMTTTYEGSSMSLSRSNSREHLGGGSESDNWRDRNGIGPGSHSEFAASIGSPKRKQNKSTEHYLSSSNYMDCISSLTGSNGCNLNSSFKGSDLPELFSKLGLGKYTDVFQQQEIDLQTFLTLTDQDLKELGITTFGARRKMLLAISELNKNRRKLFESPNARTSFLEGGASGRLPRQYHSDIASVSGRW

Biological target: Polycystin-1 PLAT domain (Polycystin-1, Lipoxygenase, Alpha-Toxin)-YFP fusion (UniProt P98161)
Assay: affinity purification with mass spectrometry; pilot experiments: pulldown from cells stably expressing PLAT-YFP, mass spectrometry

## BICC1 found in the PLAT-YFP pulldown (from UniProt Q9H694 1-974)
  binding: binds
